The values below come from the supplement of paper PMC12819154, “High-throughput peptide-centric local stability assay extends protein–ligand identification to membrane proteins, tissues and bacteria” (Nature Structural & Molecular Biology, 2025).

By UniProt entry, the sequences of proteins in these tests, tags left out. Where a name states a change or a piece, a line headed by the entry shows the natural chain unless it says otherwise.
UniProt Q9H8W4: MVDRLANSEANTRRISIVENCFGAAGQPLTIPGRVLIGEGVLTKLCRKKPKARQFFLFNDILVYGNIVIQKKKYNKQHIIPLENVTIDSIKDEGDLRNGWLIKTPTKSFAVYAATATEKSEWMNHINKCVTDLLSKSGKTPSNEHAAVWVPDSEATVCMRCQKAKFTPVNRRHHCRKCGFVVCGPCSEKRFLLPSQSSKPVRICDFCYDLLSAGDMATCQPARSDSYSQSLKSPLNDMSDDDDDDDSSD
UniProt Q9H4K7: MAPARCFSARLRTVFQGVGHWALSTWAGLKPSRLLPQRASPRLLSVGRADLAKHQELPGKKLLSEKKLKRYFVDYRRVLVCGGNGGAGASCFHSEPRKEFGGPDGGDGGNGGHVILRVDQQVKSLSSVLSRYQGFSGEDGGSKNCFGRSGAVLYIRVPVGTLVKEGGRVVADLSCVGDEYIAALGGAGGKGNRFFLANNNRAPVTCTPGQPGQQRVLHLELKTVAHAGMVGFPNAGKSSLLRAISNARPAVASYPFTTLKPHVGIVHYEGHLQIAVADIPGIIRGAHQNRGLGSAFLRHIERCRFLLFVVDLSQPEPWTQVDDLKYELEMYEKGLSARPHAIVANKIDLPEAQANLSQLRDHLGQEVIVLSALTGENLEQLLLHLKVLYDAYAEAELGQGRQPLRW
UniProt Q9HB96: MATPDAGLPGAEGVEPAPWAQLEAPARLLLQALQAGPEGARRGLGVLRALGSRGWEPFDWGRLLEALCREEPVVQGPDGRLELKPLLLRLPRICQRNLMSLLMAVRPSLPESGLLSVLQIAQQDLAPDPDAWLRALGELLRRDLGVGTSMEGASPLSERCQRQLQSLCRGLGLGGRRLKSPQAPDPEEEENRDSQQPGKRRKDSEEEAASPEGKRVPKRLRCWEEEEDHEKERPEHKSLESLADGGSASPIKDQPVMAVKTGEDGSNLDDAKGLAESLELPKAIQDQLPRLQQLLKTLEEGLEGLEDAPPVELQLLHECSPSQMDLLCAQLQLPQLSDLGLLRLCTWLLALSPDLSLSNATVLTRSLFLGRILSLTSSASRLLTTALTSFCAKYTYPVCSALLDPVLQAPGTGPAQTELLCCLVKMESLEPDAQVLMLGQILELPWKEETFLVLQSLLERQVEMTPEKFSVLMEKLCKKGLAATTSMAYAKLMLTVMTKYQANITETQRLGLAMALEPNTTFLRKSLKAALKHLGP
UniProt Q9HBZ2, whole entry: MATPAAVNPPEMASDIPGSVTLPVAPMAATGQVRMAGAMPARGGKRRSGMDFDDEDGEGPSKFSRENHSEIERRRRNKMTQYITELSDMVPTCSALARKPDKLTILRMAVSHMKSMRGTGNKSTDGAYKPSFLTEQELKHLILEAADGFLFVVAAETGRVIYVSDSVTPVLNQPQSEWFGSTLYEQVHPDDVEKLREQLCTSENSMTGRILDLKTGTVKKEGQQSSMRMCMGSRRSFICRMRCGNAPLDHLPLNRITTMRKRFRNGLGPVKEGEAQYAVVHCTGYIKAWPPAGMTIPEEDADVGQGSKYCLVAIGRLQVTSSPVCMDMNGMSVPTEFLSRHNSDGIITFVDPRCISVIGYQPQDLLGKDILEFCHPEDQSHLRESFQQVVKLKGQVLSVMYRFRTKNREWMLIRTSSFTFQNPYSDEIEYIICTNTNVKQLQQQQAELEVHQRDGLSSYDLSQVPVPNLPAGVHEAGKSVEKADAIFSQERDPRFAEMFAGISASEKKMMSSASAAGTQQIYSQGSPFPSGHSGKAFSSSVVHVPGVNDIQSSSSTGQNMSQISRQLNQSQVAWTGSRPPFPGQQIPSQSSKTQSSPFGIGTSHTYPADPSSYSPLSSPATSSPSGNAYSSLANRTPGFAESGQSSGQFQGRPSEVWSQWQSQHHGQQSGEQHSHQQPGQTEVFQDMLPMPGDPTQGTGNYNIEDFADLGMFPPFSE
UniProt Q9NQ34: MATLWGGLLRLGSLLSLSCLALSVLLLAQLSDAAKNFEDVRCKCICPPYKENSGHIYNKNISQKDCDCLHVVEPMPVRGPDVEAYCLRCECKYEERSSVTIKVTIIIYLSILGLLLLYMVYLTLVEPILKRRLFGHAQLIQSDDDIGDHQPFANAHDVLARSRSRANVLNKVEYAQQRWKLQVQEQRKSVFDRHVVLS
UniProt Q9H4A6: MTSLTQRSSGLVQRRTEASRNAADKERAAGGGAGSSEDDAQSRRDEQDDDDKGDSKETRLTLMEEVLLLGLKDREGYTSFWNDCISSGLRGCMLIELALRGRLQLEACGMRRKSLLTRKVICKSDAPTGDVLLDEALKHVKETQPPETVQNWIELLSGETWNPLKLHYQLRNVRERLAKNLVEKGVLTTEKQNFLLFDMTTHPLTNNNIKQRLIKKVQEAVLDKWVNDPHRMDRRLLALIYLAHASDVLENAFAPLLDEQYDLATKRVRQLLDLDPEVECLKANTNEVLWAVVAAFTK
UniProt Q9HAV7: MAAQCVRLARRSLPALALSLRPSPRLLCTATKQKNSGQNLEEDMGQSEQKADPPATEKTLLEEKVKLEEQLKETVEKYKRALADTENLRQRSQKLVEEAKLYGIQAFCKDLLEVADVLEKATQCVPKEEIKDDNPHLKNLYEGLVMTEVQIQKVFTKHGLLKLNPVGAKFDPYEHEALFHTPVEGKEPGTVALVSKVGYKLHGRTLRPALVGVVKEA
UniProt Q9H4G0, whole entry: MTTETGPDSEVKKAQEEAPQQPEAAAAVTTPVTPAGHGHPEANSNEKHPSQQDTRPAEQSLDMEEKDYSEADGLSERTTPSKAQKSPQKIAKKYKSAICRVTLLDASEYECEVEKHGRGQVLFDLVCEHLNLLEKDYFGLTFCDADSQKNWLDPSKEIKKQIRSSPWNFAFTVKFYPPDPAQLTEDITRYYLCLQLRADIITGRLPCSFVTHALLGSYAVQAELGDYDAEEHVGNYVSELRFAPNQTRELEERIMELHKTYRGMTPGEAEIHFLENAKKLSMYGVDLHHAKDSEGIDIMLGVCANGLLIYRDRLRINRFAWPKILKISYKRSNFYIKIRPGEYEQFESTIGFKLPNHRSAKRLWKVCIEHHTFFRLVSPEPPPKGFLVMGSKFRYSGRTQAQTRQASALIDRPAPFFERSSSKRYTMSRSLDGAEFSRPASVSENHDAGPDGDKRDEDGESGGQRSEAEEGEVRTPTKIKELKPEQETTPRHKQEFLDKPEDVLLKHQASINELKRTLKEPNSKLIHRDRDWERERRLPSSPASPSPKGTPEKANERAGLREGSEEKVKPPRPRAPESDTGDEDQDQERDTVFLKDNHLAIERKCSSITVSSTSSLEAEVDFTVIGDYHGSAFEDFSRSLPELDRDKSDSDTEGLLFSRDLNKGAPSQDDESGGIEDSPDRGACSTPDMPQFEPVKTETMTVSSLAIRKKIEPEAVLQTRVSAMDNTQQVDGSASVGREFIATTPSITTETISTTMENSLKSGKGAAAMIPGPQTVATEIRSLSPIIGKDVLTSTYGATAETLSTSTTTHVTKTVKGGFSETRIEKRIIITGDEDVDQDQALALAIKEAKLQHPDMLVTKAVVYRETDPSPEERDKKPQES
UniProt Q9NPJ6: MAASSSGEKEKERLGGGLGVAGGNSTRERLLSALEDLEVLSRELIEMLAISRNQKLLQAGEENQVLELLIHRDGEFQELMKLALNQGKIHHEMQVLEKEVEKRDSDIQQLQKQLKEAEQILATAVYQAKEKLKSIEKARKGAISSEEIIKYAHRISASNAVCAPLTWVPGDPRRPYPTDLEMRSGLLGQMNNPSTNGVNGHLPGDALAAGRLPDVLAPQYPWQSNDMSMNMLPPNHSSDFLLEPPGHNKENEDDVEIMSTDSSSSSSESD
UniProt Q9H6R7: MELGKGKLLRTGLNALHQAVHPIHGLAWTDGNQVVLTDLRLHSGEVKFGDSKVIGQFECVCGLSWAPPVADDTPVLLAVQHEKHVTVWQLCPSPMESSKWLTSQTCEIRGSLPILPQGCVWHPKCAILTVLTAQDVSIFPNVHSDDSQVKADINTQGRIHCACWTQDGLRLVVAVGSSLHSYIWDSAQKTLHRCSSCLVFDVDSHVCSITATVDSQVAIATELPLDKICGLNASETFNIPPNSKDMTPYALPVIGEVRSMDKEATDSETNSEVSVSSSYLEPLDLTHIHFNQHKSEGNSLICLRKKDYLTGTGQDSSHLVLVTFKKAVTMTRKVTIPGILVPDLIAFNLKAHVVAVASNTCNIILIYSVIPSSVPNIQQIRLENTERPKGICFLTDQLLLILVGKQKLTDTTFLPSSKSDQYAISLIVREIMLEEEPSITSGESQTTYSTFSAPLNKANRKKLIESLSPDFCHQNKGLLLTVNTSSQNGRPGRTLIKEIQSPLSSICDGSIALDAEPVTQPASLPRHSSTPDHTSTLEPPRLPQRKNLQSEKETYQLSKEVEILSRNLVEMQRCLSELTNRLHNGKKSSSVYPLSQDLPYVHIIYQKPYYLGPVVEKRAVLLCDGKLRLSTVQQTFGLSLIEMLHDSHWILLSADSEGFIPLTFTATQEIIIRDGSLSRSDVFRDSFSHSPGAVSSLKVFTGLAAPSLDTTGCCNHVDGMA
UniProt Q9NQC8: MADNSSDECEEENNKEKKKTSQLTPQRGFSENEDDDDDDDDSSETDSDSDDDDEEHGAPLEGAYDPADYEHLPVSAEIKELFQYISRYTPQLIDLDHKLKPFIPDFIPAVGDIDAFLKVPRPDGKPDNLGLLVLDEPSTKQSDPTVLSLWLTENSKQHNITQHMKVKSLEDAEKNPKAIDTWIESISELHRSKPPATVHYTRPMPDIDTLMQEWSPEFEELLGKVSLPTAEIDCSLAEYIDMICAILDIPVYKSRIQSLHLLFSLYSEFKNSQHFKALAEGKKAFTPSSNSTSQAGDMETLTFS
UniProt Q9HC36: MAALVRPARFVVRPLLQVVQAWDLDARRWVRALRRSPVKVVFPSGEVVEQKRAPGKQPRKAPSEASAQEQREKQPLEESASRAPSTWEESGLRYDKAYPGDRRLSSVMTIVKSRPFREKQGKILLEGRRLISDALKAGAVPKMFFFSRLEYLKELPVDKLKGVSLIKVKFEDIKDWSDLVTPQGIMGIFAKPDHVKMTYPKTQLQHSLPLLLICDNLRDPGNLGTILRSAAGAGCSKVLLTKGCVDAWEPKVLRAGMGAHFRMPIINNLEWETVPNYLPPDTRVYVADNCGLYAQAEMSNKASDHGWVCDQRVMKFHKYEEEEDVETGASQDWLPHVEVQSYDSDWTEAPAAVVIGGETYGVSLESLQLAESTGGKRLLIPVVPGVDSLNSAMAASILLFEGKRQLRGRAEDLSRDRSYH
UniProt Q9NPI6: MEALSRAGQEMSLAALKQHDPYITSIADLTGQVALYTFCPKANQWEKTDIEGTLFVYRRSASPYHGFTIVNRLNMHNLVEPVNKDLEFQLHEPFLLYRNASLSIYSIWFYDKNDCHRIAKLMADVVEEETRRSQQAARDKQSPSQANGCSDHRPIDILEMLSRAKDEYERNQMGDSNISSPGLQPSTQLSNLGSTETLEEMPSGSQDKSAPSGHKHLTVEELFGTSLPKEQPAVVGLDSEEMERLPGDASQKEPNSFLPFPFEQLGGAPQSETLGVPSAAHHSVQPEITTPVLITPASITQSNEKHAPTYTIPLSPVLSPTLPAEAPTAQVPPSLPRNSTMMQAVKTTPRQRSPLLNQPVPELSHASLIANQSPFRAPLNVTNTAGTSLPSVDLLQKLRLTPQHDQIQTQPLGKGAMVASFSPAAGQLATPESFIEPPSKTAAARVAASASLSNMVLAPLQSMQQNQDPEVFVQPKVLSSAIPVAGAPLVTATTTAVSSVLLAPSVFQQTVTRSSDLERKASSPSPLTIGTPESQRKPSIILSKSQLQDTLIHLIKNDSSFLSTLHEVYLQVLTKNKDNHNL
UniProt Q9NQC1, whole entry: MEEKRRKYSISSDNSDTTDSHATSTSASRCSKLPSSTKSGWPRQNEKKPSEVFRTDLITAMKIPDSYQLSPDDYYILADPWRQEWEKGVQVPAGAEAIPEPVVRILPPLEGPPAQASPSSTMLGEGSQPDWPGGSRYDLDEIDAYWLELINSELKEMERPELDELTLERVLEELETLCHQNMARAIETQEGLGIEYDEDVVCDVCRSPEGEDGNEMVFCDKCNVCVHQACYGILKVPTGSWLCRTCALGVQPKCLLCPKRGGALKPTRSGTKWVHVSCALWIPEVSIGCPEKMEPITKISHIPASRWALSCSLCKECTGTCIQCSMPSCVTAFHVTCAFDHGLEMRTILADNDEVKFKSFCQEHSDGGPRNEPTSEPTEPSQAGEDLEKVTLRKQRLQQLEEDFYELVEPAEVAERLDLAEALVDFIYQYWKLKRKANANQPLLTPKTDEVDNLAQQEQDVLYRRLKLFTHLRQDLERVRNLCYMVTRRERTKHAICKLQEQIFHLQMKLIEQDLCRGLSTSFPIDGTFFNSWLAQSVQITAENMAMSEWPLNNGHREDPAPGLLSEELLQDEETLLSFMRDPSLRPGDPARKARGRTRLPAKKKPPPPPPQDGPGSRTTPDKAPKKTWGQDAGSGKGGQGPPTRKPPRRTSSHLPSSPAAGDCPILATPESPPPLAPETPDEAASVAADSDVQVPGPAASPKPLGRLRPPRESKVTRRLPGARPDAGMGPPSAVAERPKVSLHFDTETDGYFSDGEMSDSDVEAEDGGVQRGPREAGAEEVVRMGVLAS

This is one part of the list. Most entries show no effect beyond the scatter of the controls.

Compound in the test: CN[C@@H]1C[C@H]2O[C@@](C)([C@@H]1OC)n1c3ccccc3c3c4c(c5c6ccccc6n2c5c31)C(=O)NC4 [staurosporine]
Kind of test: log2 fold change of tryptic peptide abundance, ligand vs vehicle (limited proteolysis) (log2 ratio); higher = more trypsin-susceptible (destabilized). The settings on record: ligand concentration: 20 uM; sample: K562 cleared lysate; digestion: 4 min, 22 C (HT-PELSA RT4min, Orbitrap Astral).

On to “MRPL40 (peptide sequence: LHAEAIKR, peptide start residue: 157) (UniProt Q9NQ50)”, for which the log2 fold change is 0.533.

Regarding “UniProt Q9HCE0 (peptide sequence: VHPGDNVGTKVETPK, peptide start residue: 122)”, the log2 fold change was -0.252.

As to “RAB18 (peptide sequence: LAIWDTAGQER, peptide start residue: 59) (UniProt Q9NP72)”, the log2 fold change amounted to 0.238.

For the target “PLEKHF2 (peptide sequence: QHIIPLENVTIDSIKDEGDLR, peptide start residue: 77) (UniProt Q9H8W4)”, the log2 fold change was -0.29.

Turning to “CLSPN (peptide sequence: RGPSFMTSPSPK, peptide start residue: 1307) (UniProt Q9HAW4)”, the log2 fold change was 0.465.

On to “UniProt Q9H4K7 (peptide sequence: FFLANNNR, peptide start residue: 194)”, for which the log2 fold change was 0.187.

With “FANCE (peptide sequence: LLEALCR, peptide start residue: 63) (UniProt Q9HB96)”, the log2 fold change turned out to be 0.317.

As for “JPT2 (peptide sequence: QHLNPPGGK, peptide start residue: 82) (UniProt Q9H910)”, the log2 fold change amounted to 0.158.

Regarding “UniProt Q9NQ39 (peptide sequence: NVPNLHVMK, peptide start residue: 39)”, the log2 fold change was found to be 0.277.

On to “UniProt Q9HBZ2 (peptide sequence: ENHSEIER, peptide start residue: 92)”, for which the log2 fold change was -0.199.

For the target “TMEM9B (peptide sequence: LQVQEQR, peptide start residue: 166) (UniProt Q9NQ34)”, the log2 fold change was -0.0795.

“UniProt Q9H6V9 (peptide sequence: IATPLLCWFR, peptide start residue: 178)”: the log2 fold change was 0.337.

“SPC25 (peptide sequence: MVEMFLEYQNQISR, peptide start residue: 57) (UniProt Q9HBM1)”: the log2 fold change was -0.703.

On to “GOLPH3 (peptide sequence: AAGGGAGSSEDDAQSRR, peptide start residue: 28) (UniProt Q9H4A6)”, for which the log2 fold change is -0.796.

On to “GRPEL1 (peptide sequence: EEIKDDNPHLK, peptide start residue: 128) (UniProt Q9HAV7)”, for which the log2 fold change amounted to 0.275.

With “POLD4 (peptide sequence: LITDSYPVVK, peptide start residue: 6) (UniProt Q9HCU8)”, the log2 fold change was -0.0319.

With “EPB41L1 (peptide sequence: KKIEPEAVLQTR, peptide start residue: 709) (UniProt Q9H4G0)”, the log2 fold change was -0.314.

Take “UniProt Q9H7B2 (peptide sequence: KSDCSLFMFGSHNKK, peptide start residue: 84)”: the log2 fold change is 0.575.

Take “GORASP2 (peptide sequence: ANVEKPVK, peptide start residue: 61) (UniProt Q9H8Y8)”: the log2 fold change amounted to 0.536.

As to “UniProt Q9HAF1 (peptide sequence: RKQELAETLANLER, peptide start residue: 25)”, the log2 fold change stood at 0.347.

Take “TDRD3 (peptide sequence: ENPLPQGSVDYNNQKR, peptide start residue: 425) (UniProt Q9H7E2)”: the log2 fold change was -0.359.

With “MED4 (peptide sequence: IHHEMQVLEK, peptide start residue: 89) (UniProt Q9NPJ6)”, the log2 fold change is 0.872.

As for “UniProt Q9H6R7 (peptide sequence: NLVEMQR, peptide start residue: 567)”, the log2 fold change is -0.312.

Regarding “ALG13 (peptide sequence: IESLGYNR, peptide start residue: 29) (UniProt Q9NP73)”, the log2 fold change is 0.118.

In the case of “IFT46 (peptide sequence: AIDTWIESISELHR, peptide start residue: 178) (UniProt Q9NQC8)”, the log2 fold change stood at 0.255.

For “CAB39L (peptide sequence: TDDEQFADEK, peptide start residue: 313) (UniProt Q9H9S4)”, the log2 fold change is 0.635.

Turning to “UniProt Q9HC36 (peptide sequence: VKFEDIK, peptide start residue: 168)”, the log2 fold change was 0.444.

With “DCP1A (peptide sequence: NASLSIYSIWFYDKNDCHR, peptide start residue: 99) (UniProt Q9NPI6)”, the log2 fold change worked out at 0.596.

For “JADE2 (peptide sequence: KPSEVFR, peptide start residue: 43) (UniProt Q9NQC1)”, the log2 fold change was determined as 0.126.
